Measurements reported in patent US20130143227A1 (University of Texas, published 2013).
These are yes or no findings as the source states them, for the method shown. Binding seen in cells or lysates may run through a third protein. Some entries that bind do so weakly or less than the wild type. Sequences can lack the tags named with a protein.

Experiments:
Myc-LGR5ECD (human) [1] = molecular target: T1, Myc-LGR5ECD (human) (UniProt O75473); test: pull-down with protein A/G-agarose beads, immunoblot (legend of FIG. 4A)
T1 sequence: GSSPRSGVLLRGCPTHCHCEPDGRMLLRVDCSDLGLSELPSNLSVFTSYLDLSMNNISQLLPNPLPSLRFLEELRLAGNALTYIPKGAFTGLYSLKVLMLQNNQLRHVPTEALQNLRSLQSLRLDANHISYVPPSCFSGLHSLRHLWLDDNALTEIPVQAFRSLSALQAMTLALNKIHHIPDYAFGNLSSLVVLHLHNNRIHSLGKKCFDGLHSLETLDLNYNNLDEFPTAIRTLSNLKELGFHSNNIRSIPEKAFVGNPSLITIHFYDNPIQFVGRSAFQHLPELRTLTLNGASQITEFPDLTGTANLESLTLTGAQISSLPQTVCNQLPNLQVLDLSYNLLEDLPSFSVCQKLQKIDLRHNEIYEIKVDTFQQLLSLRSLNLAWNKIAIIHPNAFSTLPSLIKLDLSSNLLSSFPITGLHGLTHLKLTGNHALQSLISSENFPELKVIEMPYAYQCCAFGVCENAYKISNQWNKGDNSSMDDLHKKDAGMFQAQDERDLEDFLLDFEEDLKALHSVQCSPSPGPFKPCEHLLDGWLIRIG

Myc-LGR5ECD (human) [2] = molecular target: T1, Myc-LGR5ECD (human); test: pull-down with protein A/G-agarose beads, immunoblot

binding (Myc-LGR5ECD (human) [1]): binds
binding (Myc-LGR5ECD (human) [2]): binds
B1: mRSPO1-Fc (Fc fusion)
chain: DYPYDVPDYAGAQPAWTHIAVGSRGIKGKRQRRISAEGSQACAKGCELCSEVNGCLKCSPKLFILLERNDIRQVGVCLPSCPPGYFDARNPDMNKCIKCKIEHCEACFSHNFCTKCQEGLYLHKGRCYPACPEGSTAANSTMECGSPAQCEMSEWSPWGPCSKKRKLCGFRKGSEERTRRVLHAPGGDHTTCSDTKETRKCTVRRTPCPEGQKRRKGGQGRRENANRHPARKNSKEPGSNSRRHKGQQQPQPGTTGPLTSVGPTWAQRRLEPRGPTIKPCPPCKCPAPNLLGGPSVFIFPPKIKDVLMISLSPIVTCVVVDVSEDDPDVQISWFVNNVEVHTAQTQTHREDYNSTLRVVSALPIQHQDWMSGKEFKCKVNNKDLPAPIERTISKPKGSVRAPQVYVLPPPEEEMTKKQVTLTCMVTDFMPEDIYVEWTNNGKTELNYKNTEPVLDSDGSYFMYSKLRVEKKNWVERNSYSCSVVHEGLHNHHTTKSFSRTPGK
